In PMC6958661, “Regulatory Role of PlaR (YiaJ) for Plant Utilization in Escherichia coli K-12” (Scientific Reports, 2019):
A negative result means that nothing was seen under these conditions. Tags and fusion partners may be left off the protein sequences shown. For at least one entry, the source does not settle the construct or the ends of the probe. A weaker result is weaker than the reference pair of the same experiment.

Biological target: T1, PlaR (YiaJ) (Escherichia coli K-12) (UniProt P37671)
T1 sequence (looked up): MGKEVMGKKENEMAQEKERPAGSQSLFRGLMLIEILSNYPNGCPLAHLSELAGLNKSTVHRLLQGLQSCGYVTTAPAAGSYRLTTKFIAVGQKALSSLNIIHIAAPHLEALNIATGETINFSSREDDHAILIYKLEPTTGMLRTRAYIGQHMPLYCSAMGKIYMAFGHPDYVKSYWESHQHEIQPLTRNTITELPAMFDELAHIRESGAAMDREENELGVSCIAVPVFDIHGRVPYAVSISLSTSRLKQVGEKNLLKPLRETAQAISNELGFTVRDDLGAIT
Assay: EMSA
Conditions: 10 mM Tris-HCl pH 7.8 (at 4 C), 150 mM NaCl, 3 mM Mg acetate, 37 C 20 min, 5% PAGE, GelRed stain, recombinant protein, residues 1-282, protein details: His-tag (pET21a(+), NdeI/NotI), probe letters rebuilt from the primers and the genome

“CTCAAATCATCCTGCGTTCCCCACTGGCGCTTTTTAGGGCTGAATACAACCGCATCAGGATGGCGAGTTAAAAAATCCTGTTCATCCGTCTGCGTGTCCGGTTGCGAAGCGTCCGGACGAGAAGGTTTTTTATCTGACGGATCATGTTTTGATTTTACTGACGGATCCCCGCCAGATTCTGACGGGTGAAAACCCGATTTTTTGCCAGATTTCGACGCATCAAATTTTGACGGGTCAGATTTTGATGCGTCAGATTTTGACGGGTCAGAGTCTGACAGTTGAGAAAATGCCGCTGCCTGAAGCTTCGCAACGTTAAGCTGATAAACATTCGACGCATTGCGGTTATGATGAGGAGCAGCAAA (double strand) [yfdO/yfdP probe]”: no binding (PlaR up to 5 uM).
“TTCGGGTTATTAGCGAAATCGCCGCCCATCTGCATCACATTGTGCTGCGGCTCAAGCAGGAAGCCGCCAGACGGCGTTCCGGTGGTCGTATCAGTCTCAGTAGGTTTTGGCTTGCTGCTACAGGCGGCAAGCAACACAAAAAGGGGAAGCAATGTTACATAACGACGCTTGAACATGAGGGGTCCATTTAACAGATTCAACCAGGGGCAAGTATGGTAAAGCATCACGCCCCGCACAAGGAAGCGGTAGTCACTGCCCGATACGGACTTTACATAACTCAACTCATTCCCCTCGCTATCCTTTTATTCAAACTTTCAAATTAAAATATTTATCTTTCATTTTGCGATCAAAATAACACTTTTAAATCTTTCAATCTGATTAGATTAGGTTGCCGTTTGGTAATAAAACAATAAATCCTGAAGGAGAGAACAATGATAGAAACCATTACTCATGGTGC (double strand) [mltB/srlA probe]”: binds (PlaR 1-5 uM, called low-affinity target).
“TTTGTCGCGTCCTGATGGTAGCGCAAAGTGTGCCGTAGTTCACGATCTCGACAGATAATTTATAACCAATTGATTTTTATGTCTTTTGAAATTCATCAATCAGATTGCCTTGTTAAAAAGTGATCGATATATTTGAAATCAAGTTTCGCATATTGAAATTTTAAGCCAAAAAAGCGATCAAAAAAACAAGGAAGCCTGGGATGAAAGTGACATTTGAGCAGTTAAAAGCAGCCTTTAATCGGGTCTTAATTTCACGCGGCGTTGACAGCGAAACGGCTGACGCCTGTGCAGAGATGTTCGCCCGCACCACCGAATCCGGCGTTTATTCTCACGGCGTTAATCGTTTCCCTCGTTTCATTCAACAACTGGAAAACGGCGATATCATTCCTGATGCCCAACCCAAACGTATAACCAGCCTCGGCGCAATTGAACAGTGGGACGCCCAGCGTTCGATCGGTAACCTGACAGCGAAAAAGATGATGGATCGCGCCATTGAACTG (double strand) [plaR/yiaK probe]”: binds (10 mM D-glucuronate (no effect), PlaR 2.5 uM); binds more weakly (10 mM L-ascorbate, PlaR 2.5 uM); binds more weakly (10 mM alpha-D-galacturonate, PlaR 2.5 uM). “TTTGTCGCGTCCTGATGGTAGCGCAAAGTGTGCCGTAGTTCACGATCTCGACAGATAATTTATAACCAATTGATTTTTATGTCTTTTGAAATTCATCAATCAGATTGCCTTGTTAAAAAGTGATCGATATATTTGAAATCAAGTTTCGCATATTGAAATTTTAAGCCAAAAAAGCGATCAAAAAAACAAGGAAGCCTGGGATGAAAGTGACATTTGAGCAGTTAAAAGCAGCCTTTAATCGGGTCTTAATTTCACGCGGCGTTGACAGCGAAACGGCTGACGCCTGTGCAGAGATGTTCGCCCGCACCACCGAATCCGGCGTTTATTCTCACGGCGTTAATCGTTTCCCTCGTTTCATTCAACAACTGGAAAACGGCGATATCATTCCTGATGCCCAACCCAAACGTATAACCAGCCTCGGCGCAATTGAACAGTGGGACGCCCAGCGTTCGATCGGTAACCTGACAGCGAAAAAGATGATGGATCGCGCCATTGAACTG (double strand) [plaR/yiaK probe]”: binds (PlaR 1-5 uM, strongest of the probes).
